# Measurements from PubChem BioAssay (NCATS).
# Inconclusive results, whose numbers are uncertain, are shown with a selection of clear calls. For part of these data: Potencies of inconclusive entries are doubtful fits and often do not repeat. Calls of active or inactive are those of the source. The call rests on the fitted dose curve; in most records, active means well fitted curve in the direction sought with a large enough effect; inconclusive means small, poorly fitted or top-dose-only effect, or another doubt; inactive means no such curve, though single readings can be large; an effect the other way counts as inactive or inconclusive.
# Assays:
# [1] = Quantitative High-Throughput drug screen in 47 multiple myeloma cell lines against the NCATS MIPE library collection: Karpas417_ECACC cell viability assay (AID 1918961); settings: Karpas417 myeloma viability, CellTiter-Glo ATP luminescence, 48 h; viability (% of DMSO): at 45.8 µM (top of the series)
# How it was run: (§1)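 qHTS of the MIPE 4.0 collection: 500 myeloma cells/well, 48 h drug exposure at 37C in 5% CO2, then CellTiter-Glo for 5 min at room temperature before luminescence reading.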
# [2] = Quantitative High-Throughput drug screen in 47 multiple myeloma cell lines against the NCATS MIPE library collection: JIM1_ECACC cell viability assay (AID 1918964); settings: JIM1 myeloma viability, CellTiter-Glo ATP luminescence, 48 h; viability (% of DMSO): at 45.8 µM (top of the series)
# How it was run: (§2)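 Viability readout: CellTiter-Glo luminescence following 5 min room-temperature incubation with reagent. Prior exposure: 48 h, 37C, humidified 5% CO2, 500 cells per well.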
# [3] = Quantitative High-Throughput drug screen in 47 multiple myeloma cell lines against the NCATS MIPE library collection: KMS12PE_JCRB cell viability assay (AID 1918972); settings: KMS12PE myeloma viability, CellTiter-Glo ATP, 48 h; viability: at 45.8 µM (top of the series); further: nearly all actives have a fitted effect of over 30% in size
# How it was run: as §1
# [4] = Quantitative High-Throughput drug screen in 47 multiple myeloma cell lines against the NCATS MIPE library collection: KMS20_JCRB cell viability assay (AID 1918973); settings: CellTiter-Glo ATP, 48 h; viability (% of DMSO): at 45.8 µM (top of the series); further: nearly all actives have a fitted effect of over 45% in size
# How it was run: as §2
# [5] = Quantitative High-Throughput drug screen in 47 multiple myeloma cell lines against the NCATS MIPE library collection: KMS21BM_JCRB cell viability assay (AID 1918974); settings: ATP luminescence, 48 h; viability: at 45.8 µM (top of the series)
# How it was run: as §2
# [6] = Quantitative High-Throughput drug screen in 47 multiple myeloma cell lines against the NCATS MIPE library collection: MMM1_PLB cell viability assay (AID 1918976); further: nearly all actives have a fitted effect of over 35% in size
# How it was run: (§3)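 Viability after 48 h drug exposure was measured as ATP-dependent luminescence. Cells, 500 per well, sat at 37 °C under 5% CO2; DMSO wells set 100%, media-only wells 0%.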
# [7] = Quantitative High-Throughput drug screen in 47 multiple myeloma cell lines against the NCATS MIPE library collection: MOLP8_DSMZ cell viability assay (AID 1918977); further: nearly all actives have a fitted effect of over 45% in size
# How it was run: as §3
# [8] = Quantitative High-Throughput drug screen in 47 multiple myeloma cell lines against the NCATS MIPE library collection: OCIMY1_PLB cell viability assay (AID 1918979); further: nearly all actives have a fitted effect of over 35% in size
# How it was run: as §3
# [9] = Quantitative High-Throughput drug screen in 47 multiple myeloma cell lines against the NCATS MIPE library collection: JJN3_DSMZ cell viability assay (AID 1918966; further: nearly all actives have a fitted effect of over 50% in size)
# How it was run: as §2
# [10] = Quantitative High-Throughput drug screen in 47 multiple myeloma cell lines against the NCATS MIPE library collection: Karpas25_ECACC cell viability assay (AID 1918968; further: nearly all actives have a fitted effect of over 35% in size)
# How it was run: as §2
# [11] = Quantitative High-Throughput drug screen in 47 multiple myeloma cell lines against the NCATS MIPE library collection: KMS27_JCRB cell viability assay (AID 1918970); settings: KMS27 myeloma cells, CellTiter-Glo ATP viability, 48 h; viability (% of DMSO): at 45.8 µM (top of the series); further: nearly all actives have a fitted effect of over 30% in size
# How it was run: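 Luminescent ATP read-out (CellTiter-Glo, 5 min at room temperature) after 48 h compound exposure of 500 KMS27_JCRB cells per well; DMSO wells define full viability and media-only wells zero.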
# [12] = Quantitative High-Throughput drug screen in 47 multiple myeloma cell lines against the NCATS MIPE library collection: KMS12BM_JCRB cell viability assay (AID 1918971); further: nearly all actives have a fitted effect of over 35% in size
# How it was run: as §2
# [13] = Quantitative High-Throughput drug screen in 47 multiple myeloma cell lines against the NCATS MIPE library collection: KMS26_JCRB cell viability assay (AID 1918975); settings: KMS26 myeloma cells viability, CellTiter-Glo ATP, 48 h; viability (% of DMSO): at 45.8 µM (top of the series); further: nearly all actives have a fitted effect of over 45% in size
# How it was run: as §2
# [14] = Quantitative High-Throughput drug screen in 47 multiple myeloma cell lines against the NCATS MIPE library collection: NCIH929_DSMZ cell viability assay (AID 1918978); settings: NCI-H929 myeloma viability, CellTiter-Glo ATP, 48 h; series mostly up to 45.8 µM; further: nearly all actives have a fitted effect of over 35% in size
# How it was run: as §3
# [15] = Quantitative High-Throughput drug screen in 47 multiple myeloma cell lines against the NCATS MIPE library collection: MM1S_ATCC cell viability assay (AID 1918980); further: nearly all actives have a fitted effect of over 45% in size
# How it was run: as §3
# [16] = Quantitative High-Throughput drug screen in 47 multiple myeloma cell lines against the NCATS MIPE library collection: INA6_PLB cell viability assay (AID 1918965; further: nearly all actives have a fitted effect of over 55% in size); settings: INA6 myeloma viability, CellTiter-Glo ATP luminescence, 48 h; series mostly up to 45.8 µM
# How it was run: as §1
# [17] = Quantitative High-Throughput drug screen in 47 multiple myeloma cell lines against the NCATS MIPE library collection: MM1R_ATCC cell viability assay (AID 1918981); further: nearly all actives have a fitted effect of over 35% in size
# How it was run: as §3
# [18] = Quantitative High-Throughput drug screen in 47 multiple myeloma cell lines against the NCATS MIPE library collection: H1112_PLB cell viability assay (AID 1918967; further: nearly all actives have a fitted effect of over 30% in size)
# How it was run: as §2
# Potency means the concentration at half of the fitted maximal effect.
Compound,Potency [1],Potency [2],Potency [3],Potency [4],Potency [5],Potency [6],Potency [7],Potency [8],Potency [9],Potency [10],Potency [11],Potency [12],Potency [13],Potency [14],Potency [15],Potency [16],Potency [17],Potency [18]
CC(O)(CS(=O)(=O)c1ccc(F)cc1)C(=O)Nc1ccc(C#N)c(C(F)(F)F)c1 (configuration not stated),active: 372 nM,active: 4180 nM,active: 1660 nM,active: 935 nM,"inconclusive: 743 nM [cytotoxic, full curve, poor fit]","inconclusive: 18700 nM [cytotoxic, partial curve, poor fit]","inconclusive: 16600 nM [cytotoxic, partial curve, poor fit]","inconclusive: 37200 nM [cytotoxic, single point]",–,–,–,–,–,–,–,–,–,–
c1cc2c(cc1[C@H]1OC[C@H]3[C@H]1CO[C@H]3c1ccc3c(c1)OCO3)OCO2,"inconclusive: 37200 nM [cytotoxic, single point]","inconclusive: 33200 nM [cytotoxic, single point]",–,inactive,"inconclusive: 105 nM [cytotoxic, full curve, poor fit]","inconclusive: 1.9 nM [rising, full curve]",inactive,"inconclusive: 1.7 nM [cytotoxic, full curve, poor fit]","inconclusive: 1.3 nM [rising, full curve, poor fit]","inconclusive: 20900 nM [cytotoxic, single point]",inactive,"inconclusive: 37200 nM [cytotoxic, single point]","inconclusive: 3720 nM [rising, partial curve, poor fit]",inactive,"inconclusive: 2.3 nM [rising, full curve]",–,–,–
CN1CCN(c2ccc([N+](=O)[O-])c3no[n+]([O-])c23)CC1,active: 5260 nM,"inconclusive: 26400 nM [cytotoxic, single point]",–,active: 8330 nM,active: 8330 nM,–,"inconclusive: 8330 nM [cytotoxic, partial curve, poor fit]",–,–,–,–,active: 18700 nM,"inconclusive: 33200 nM [cytotoxic, single point]",–,–,–,–,–
CN1[C@H]2CC(O)C[C@H]1[C@H]1O[C@H]12 (some centres not stated),"inconclusive: 13200 nM [rising, partial curve, poor fit]","inconclusive: 2640 nM [cytotoxic, partial curve, poor fit]",–,active: 11800 nM,"inconclusive: 10500 nM [rising, full curve]",active: 20900 nM,–,"inconclusive: 33200 nM [cytotoxic, single point]",active: 18700 nM,active: 5900 nM,inactive,–,active: 16600 nM,–,–,active: 8330 nM,–,–
c1ccc(CCCN2CCN(CCOC(c3ccccc3)c3ccccc3)CC2)cc1,"inconclusive: 6620 nM [rising, full curve, poor fit]","inconclusive: 93.5 nM [cytotoxic, full curve, poor fit]",inactive,active: 13200 nM,"inconclusive: 11800 nM [rising, full curve]",–,active: 20900 nM,active: 23500 nM,–,–,inactive,–,–,–,"inconclusive: 33200 nM [cytotoxic, single point]",–,active: 23500 nM,–
CCCCCC[C@H]1C(=O)O[C@H](C)[C@H](NC(=O)c2cccc(NC=O)c2O)C(=O)O[C@@H](C)[C@@H]1OC(=O)CC(C)C,active: 332 nM,active: 372 nM,–,"inconclusive: 418 nM [cytotoxic, full curve, poor fit]","inconclusive: 29600 nM [rising, partial curve, poor fit]",–,active: 235 nM,"inconclusive: 332 nM [cytotoxic, full curve, poor fit]",–,–,active: 235 nM,–,–,–,–,active: 83.3 nM,"inconclusive: 132 nM [cytotoxic, full curve]",–
Cc1sc2c(c1C)C(c1ccc(Cl)cc1)=N[C@@H](CC(=O)OC(C)(C)C)c1nnc(C)n1-2,"inconclusive: 33200 nM [rising, partial curve, poor fit]","inconclusive: 118 nM [cytotoxic, full curve, poor fit]",–,–,"inconclusive: 37200 nM [rising, partial curve, poor fit]",–,"inconclusive: 83.3 nM [cytotoxic, full curve]","inconclusive: 833 nM [cytotoxic, full curve]",active: 296 nM,–,–,active: 187 nM,–,–,–,active: 29.6 nM,–,–
C[C@@H]1[C@@H](C(=O)C[C@H]2O[C@@H]3O[C@]4(C)CC[C@@H]5[C@H](C)CC[C@@H]([C@H]2C)[C@@]35OO4)O[C@@H]2O[C@]3(C)CC[C@H]4[C@H](C)CC[C@@H]1[C@@]24OO3,"inconclusive: 37200 nM [rising, partial curve, poor fit]","inconclusive: 1050 nM [cytotoxic, full curve, poor fit]",–,active: 469 nM,"inconclusive: 37200 nM [rising, partial curve, poor fit]",–,active: 526 nM,"inconclusive: 833 nM [cytotoxic, full curve]",–,–,–,active: 372 nM,–,–,active: 16600 nM,–,–,active: 469 nM
C[C@]12CC[C@@H]3[C@@H](CCC4=CC(=O)CC[C@@H]43)[C@@H]1CC[C@@H]2OC(=O)CCc1ccccc1,"inconclusive: 41.8 nM [rising, full curve, poor fit]","inconclusive: 46.9 nM [rising, full curve, poor fit]",–,"inconclusive: 1.7 nM [rising, full curve, poor fit]","inconclusive: 1.9 nM [rising, full curve, poor fit]","inconclusive: 33200 nM [cytotoxic, single point]","inconclusive: 29600 nM [cytotoxic, single point]",–,"inconclusive: 37200 nM [cytotoxic, single point]",inactive,"inconclusive: 1660 nM [rising, full curve]","inconclusive: 37200 nM [cytotoxic, single point]","inconclusive: 18700 nM [cytotoxic, partial curve, poor fit]","inconclusive: 6.6 nM [rising, full curve, poor fit]",inactive,"inconclusive: 66.2 nM [rising, full curve, poor fit]","inconclusive: 37200 nM [cytotoxic, single point]",–
C=CCON=C(C[C@H]1O[C@@H]2O[C@]3(C)CC[C@@H]4[C@H](C)CC[C@@H]([C@H]1C)[C@@]24OO3)[C@H]1O[C@@H]2O[C@]3(C)CC[C@H]4[C@H](C)CC[C@@H]([C@@H]1C)[C@@]24OO3,active: 148 nM,"inconclusive: 11.8 nM [cytotoxic, full curve, poor fit]",–,–,"inconclusive: 33200 nM [rising, partial curve, poor fit]",–,–,active: 187 nM,–,–,"inconclusive: 10.5 nM [cytotoxic, full curve, poor fit]",–,–,–,–,active: 469 nM,–,–
C[C@@H]1C[C@@H]([C@H](O)CC2CC(=O)NC(=O)C2)C(=O)[C@@H](C)C1,active: 469 nM,active: 148 nM,–,active: 1660 nM,active: 526 nM,–,active: 296 nM,"inconclusive: 1320 nM [cytotoxic, full curve]",–,–,–,active: 209 nM,active: 132 nM,–,–,–,–,–
CC(=O)OCC1=C(C(=O)O)N2C(=O)[C@@H](N)[C@@H]2SC1,"inconclusive: 5.9 nM [cytotoxic, full curve, poor fit]","inconclusive: 20900 nM [cytotoxic, partial curve, poor fit]",–,"inconclusive: 33.2 nM [rising, full curve, poor fit]",–,"inconclusive: 11.8 nM [rising, full curve]",inactive,–,"inconclusive: 4.2 nM [rising, full curve, poor fit]",–,active: 7430 nM,"inconclusive: 37.2 nM [rising, full curve, poor fit]",inconclusive: 1 nM,–,"inconclusive: 37200 nM [cytotoxic, single point]",inconclusive: 1 nM,"inconclusive: 5.3 nM [rising, full curve]",–

# Pulled one by one from the list above, 2 records:
Compound,Potency [1],Potency [2],Potency [3],Potency [4],Potency [5],Potency [6],Potency [7],Potency [8],Potency [9],Potency [10],Potency [11],Potency [12],Potency [13],Potency [14],Potency [15],Potency [16],Potency [17],Potency [18]
C=CCON=C(C[C@H]1O[C@@H]2O[C@]3(C)CC[C@@H]4[C@H](C)CC[C@@H]([C@H]1C)[C@@]24OO3)[C@H]1O[C@@H]2O[C@]3(C)CC[C@H]4[C@H](C)CC[C@@H]([C@@H]1C)[C@@]24OO3,active: 148 nM,"inconclusive: 11.8 nM [cytotoxic, full curve, poor fit]",–,–,"inconclusive: 33200 nM [rising, partial curve, poor fit]",–,–,active: 187 nM,–,–,"inconclusive: 10.5 nM [cytotoxic, full curve, poor fit]",–,–,–,–,active: 469 nM,–,–
CN1CCN(c2ccc([N+](=O)[O-])c3no[n+]([O-])c23)CC1,active: 5260 nM,"inconclusive: 26400 nM [cytotoxic, single point]",–,active: 8330 nM,active: 8330 nM,–,"inconclusive: 8330 nM [cytotoxic, partial curve, poor fit]",–,–,–,–,active: 18700 nM,"inconclusive: 33200 nM [cytotoxic, single point]",–,–,–,–,–
